Experimental data: patent US6258931 (dated 2001)

Assay: general procedure: Fmoc solid-phase peptide synthesis; 2-chlorotrityl resin; HBTU
Settings: whole synthesis, calculated as tetrakis-trifluoroacetate salt

## Cys-Thr-Gly-deoxyhypusine-His-Gly
  isolated yield: 28%
